According to PubChem BioAssay AID588590 (National Center for Advancing Translational Sciences (NCATS), 2011):
In all, about 390,000 compounds went through this assay and about 4,000 (1%) were called active. Listed are the inconclusive results; actives and inactives stand elsewhere. Calls come from the whole dose curve; as a rule, active = well fitted inhibition curve with a large enough effect; inconclusive = small, poorly fitted or top-dose-only effect, or another doubt; inactive = no such curve, though single readings can be large or run the other way.
Potency is the fitted concentration of half-maximal effect.

The chains behind the UniProt entries cited, without tags or fusion partners.
UniProt Q9UNA4, whole entry: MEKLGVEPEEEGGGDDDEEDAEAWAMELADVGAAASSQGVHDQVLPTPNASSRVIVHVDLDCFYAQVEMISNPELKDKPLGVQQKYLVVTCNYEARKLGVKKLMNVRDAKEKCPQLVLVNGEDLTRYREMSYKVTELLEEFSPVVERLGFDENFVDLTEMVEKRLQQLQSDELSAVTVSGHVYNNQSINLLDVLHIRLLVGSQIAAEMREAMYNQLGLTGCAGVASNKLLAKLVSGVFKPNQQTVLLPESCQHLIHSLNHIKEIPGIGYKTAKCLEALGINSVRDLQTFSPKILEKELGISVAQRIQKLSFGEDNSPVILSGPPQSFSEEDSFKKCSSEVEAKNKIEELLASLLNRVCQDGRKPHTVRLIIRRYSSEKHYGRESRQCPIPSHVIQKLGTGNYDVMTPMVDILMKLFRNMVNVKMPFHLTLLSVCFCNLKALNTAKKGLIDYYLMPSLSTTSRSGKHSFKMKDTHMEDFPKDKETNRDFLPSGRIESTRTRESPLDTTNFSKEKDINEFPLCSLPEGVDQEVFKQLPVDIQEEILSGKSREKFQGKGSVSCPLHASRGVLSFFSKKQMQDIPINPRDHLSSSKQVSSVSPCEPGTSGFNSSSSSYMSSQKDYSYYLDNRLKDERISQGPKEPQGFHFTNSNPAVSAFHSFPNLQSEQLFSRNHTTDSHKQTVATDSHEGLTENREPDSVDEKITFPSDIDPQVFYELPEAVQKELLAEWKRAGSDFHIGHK

These compounds were tested against DNA polymerase iota (Homo sapiens) (UniProt Q9UNA4) (assay: qHTS for Inhibitors of Polymerase Iota). Settings: Pol iota fluorescent replication assay, 10 min.
`CN1CCC(Nc2ccc(F)c(Cl)c2)CC1` was tested, and the Potency was inconclusive: 35.5 µM.
With `CC(C)(C)OC(=O)N1CCC(Nc2ccccc2)CC1` the Potency was inconclusive: 35.5 µM.
In the case of `CCOC(=O)N1CCC(Nc2ccc(F)cc2)CC1`, the Potency is reported as inconclusive: 28.2 µM.
With `COc1ccc(C(=O)NCC2(N3CCCCC3)CCCCC2)c(OC)c1OC` the Potency was inconclusive: 89.1 µM.
